Data: US20210380682A1
Positions count from the first letter of the chain named. No constants are given. Whether binding was seen depends on the method and setting. Some results given as binding are weak or reduced against the parent protein; the word gives no strength. Values belong to the binder of their own block, whether it stands above or below them.

Sequences of proteins named here, by UniProt entry; tags and fusion partners are left off. Residues count along the entry.
UniProt P01850, residues 1-129: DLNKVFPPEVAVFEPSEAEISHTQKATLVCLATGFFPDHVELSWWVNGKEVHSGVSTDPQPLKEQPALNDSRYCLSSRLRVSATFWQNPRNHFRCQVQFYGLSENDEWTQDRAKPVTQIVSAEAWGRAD

Key:
[1] = target: human TRBC1 (T cell receptor beta chain constant domain 1), construct BIM0444 (human) (UniProt P01850); assay: ELISA (FIG. 7)
[2] = target: human TRBC1 (T cell receptor beta chain constant domain 1), construct BIM0444 (human) (UniProt P01850); assay: ELISA: antibody coated at 1 ug/mL, hTRBC1 BIM0444 titrated 100 nM to 6.4 pM, anti-his tag HRP detection
[3] = target: human TRBC1 (T cell receptor beta chain constant domain 1), construct BIM0444 (human) (UniProt P01850); assay: BLI (Octet) (FIG. 8)
[4] = target: human TRBC1 (T cell receptor beta chain constant domain 1), construct BIM0444 (human) (UniProt P01850); assay: BLI (Octet): hTRBC1 BIM0444 loaded on Protein A sensors, Fab 50 nM to 0.78 nM

- binding [1]: binds
- binding [2]: binds
B1: JOVI.1 (murine anti-TRBC1 antibody), bivalent mAb (antibody, V domains shown)
VH: EVRLQQSGPDLIKPGASVKMSCKASGYTFTGYVMHWVKQRPGQGLEWIGFINPYNDDIQSNERFRGKATLTSDKSSTTAYMELSSLTSEDSAVYYCARGAGYNFDGAYRFFDFWGQGTTLTVSS
VL: DVVMTQSPLSLPVSLGDQASISCRSSQRLVHSNGNTYLHWYLQKPGQSPKLLIYRVSNRFPGVPDRFSGSGSGTDFTLKISRVEAEDLGIYFCSQSTHVPYTFGGGTKLEIK

- binding [3]: binds
- binding [4]: binds
B2: BIM0446, JOVI.1 Fab (Fab, V domains shown)
VH: B1 VH
VL: B1 VL

- binding [3]: binds
- binding [4]: binds
B3: BIM0460, humanized JOVI.1 Fab (Fab, V domains shown)
VH: QVQLVQSGAEVKKPGSSVKVSCKASGYTFTGYVMHWVRQAPGQGLEWMGFINPYNDDIQSNERFRGRVTITSDKSTTTAYMELSSLRSEDTAVYYCARGAGYNFDGAYRFFDFWGQGTLVTVSS
VL: B1 VL with S14T, D17Q, Q18P, L42Q, K44R, K50R, L88V, I90V, L109V
